{"sequences": {"note": "Chains of the proteins cited; added tags and fusions are not shown. Lines headed by an entry give the natural chain unless they say otherwise; changes in a name come on top.", "UniProt P18054": "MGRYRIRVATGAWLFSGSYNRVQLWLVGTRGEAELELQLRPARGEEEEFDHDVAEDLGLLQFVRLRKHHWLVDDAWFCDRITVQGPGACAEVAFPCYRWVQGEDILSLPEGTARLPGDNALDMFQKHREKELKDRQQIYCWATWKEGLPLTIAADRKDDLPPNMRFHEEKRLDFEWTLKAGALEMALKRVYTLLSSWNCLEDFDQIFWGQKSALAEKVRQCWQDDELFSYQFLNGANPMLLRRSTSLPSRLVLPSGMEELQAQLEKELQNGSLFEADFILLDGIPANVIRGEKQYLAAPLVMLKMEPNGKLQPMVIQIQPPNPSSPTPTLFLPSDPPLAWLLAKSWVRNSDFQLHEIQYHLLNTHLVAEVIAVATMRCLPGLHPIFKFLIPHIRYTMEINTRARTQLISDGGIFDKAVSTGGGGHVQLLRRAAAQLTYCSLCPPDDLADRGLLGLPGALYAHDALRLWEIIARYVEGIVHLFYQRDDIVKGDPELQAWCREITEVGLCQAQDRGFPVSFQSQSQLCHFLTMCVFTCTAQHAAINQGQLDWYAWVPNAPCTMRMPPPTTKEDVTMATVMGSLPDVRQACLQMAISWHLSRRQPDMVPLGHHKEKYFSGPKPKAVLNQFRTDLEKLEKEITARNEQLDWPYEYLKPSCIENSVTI"}, "source": "PubChem BioAssay AID1671190", "about": "(National Center for Advancing Translational Sciences (NCATS), 2021)", "note": "Screen size: about 580,000 compounds; about 6,100 (1.1%) were called active. The shares of active, inactive and inconclusive entries below differ from those in the screen. The call rests on the fitted dose curve; in most records, active means well fitted inhibition curve with a large enough effect; inconclusive means small, poorly fitted or top-dose-only effect, or another doubt; inactive means no such curve, though single readings can be large or run the other way. Potencies beside an inconclusive call are fits to weak or partial responses and may not hold up. On the % scale 0 is the no-effect control and ±100 the full control effect; potency means the concentration at half of the fitted maximal effect."}
{"molecular_target": "Polyunsaturated fatty acid lipoxygenase ALOX12 (Homo sapiens) (UniProt P18054)", "assay": "Primary qHTS assay for inhibitors of human arachidonate 12S-lipoxygenase (ALOX12): Round 2", "details": "purified 12hLO, xylenol orange hydroperoxide absorbance; activity change, negative = inhibition: at 108 µM (top of the series) unless noted", "how_it_was_run": "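Purified human 12hLO at 150 nM in 25 mM Hepes, 0.01% Triton X-100, pH 7.0, preincubated 15 min at room temperature with compound. Reaction started with 40 uM arachidonic acid, 30 min at room temperature. Hydroperoxide measured by Fe-xylenol orange, 573/405 nm absorbance ratio.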"}
{"smiles": "Cc1noc2c(NCCCn3ccnc3)cc(-c3cccc(C(F)(F)F)c3)nc12", "Potency": "inconclusive: 89.1 µM [inhibitor, partial curve, poor fit]"}
{"smiles": "CCOP(=O)(OCC)C(NC(=O)/C=C/c1ccc(OC)cc1)c1ccccc1", "note": "(stereo unspecified)", "Potency": "inconclusive: 100 µM [inhibitor, partial curve, poor fit]"}
{"smiles": "CCCCC(=O)N1CCC(c2nc3ccccc3o2)CC1", "activity change, negative = inhibition": "inactive: 14.6%"}
{"smiles": "O=C(Nc1ccc(F)cc1)N1CCC(c2nc3c(nnn3Cc3cccc(Cl)c3)c(=O)[nH]2)CC1", "activity change, negative = inhibition": "inactive: -7.39%"}
{"smiles": "COc1cc(/C=C2\\CCc3c2nc2ccccc2c3C(=O)O)cc(OC)c1OC", "Potency": "inconclusive: 112 µM [inhibitor, single point]"}
{"smiles": "C=CC(=C)CCC=C(C)C", "Potency": "inconclusive: 158 µM [inhibitor, single point]"}
{"smiles": "CCONC(=O)CC1Sc2ccc(C(F)(F)F)cc2NC1=O", "note": "(stereo unspecified)", "activity change, negative = inhibition": "inactive: 4.58%"}
{"smiles": "CCCCCCCNC(=S)Nc1ccccc1F", "Potency": "inconclusive: 44.7 µM [inhibitor, partial curve, poor fit]"}
{"smiles": "COC(=O)[C@H](Cc1ccccc1)NC(=O)NC(C)CCc1ccccc1", "note": "(stereo partly specified)", "Potency": "inconclusive: 141 µM [inhibitor, partial curve, poor fit]"}
{"smiles": "CCOc1ccccc1N1C(=O)CC(N(O)c2ccccc2)C1=O", "note": "(stereo unspecified)", "Potency": "inconclusive: 50.1 µM [inhibitor, single point]"}
{"smiles": "CCCCCCCC1(C)NC(=O)N(c2ccccc2)N1", "note": "(stereo unspecified)", "Potency": "inconclusive: 39.8 µM [inhibitor, partial curve, poor fit]"}
{"smiles": "O=C(Nc1ccc(-c2cn3c(n2)SCC3)cc1)c1ccc2c(c1)OCO2", "activity change, negative = inhibition": "inactive: 2.25%"}
{"smiles": "O=C(NC1CCCN(c2cc(-c3ccccc3)[nH]n2)C1)C1CCCC1", "note": "(stereo unspecified)", "activity change, negative = inhibition": "inactive: 47.9%"}
{"smiles": "CCCCCCN(C(=O)CCCCCN1C(=O)NC(c2ccc(-c3ccccc3)cc2)C(C(=O)OCc2ccccc2)=C1C)C(C)C(=O)NCCCC", "note": "(stereo unspecified)", "Potency": "inconclusive: 39.8 µM [inhibitor, partial curve, poor fit]"}
{"smiles": "O=C(C1=C(O)C(=O)N(CCN2CCOCC2)C1c1cccc([N+](=O)[O-])c1)c1cc2ccccc2o1", "note": "(stereo unspecified)", "Potency": "inconclusive: 44.7 µM [inhibitor, partial curve]"}
{"smiles": "CC(=O)N1CCC(N[C@@H]2C[C@H](COc3cccc(C)n3)[C@@H](O)[C@H]2O)CC1", "Potency": "active: 15.8 µM"}
{"smiles": "CCCOC(=O)c1cccc(NC(=O)COc2ccc([N+](=O)[O-])cc2)c1", "activity change, negative = inhibition": "inactive: -1.82%"}
{"smiles": "Cc1ccc(OCC(=O)NC(=S)Nc2cccc(NC(=O)c3ccccc3Cl)c2)cc1", "Potency": "inconclusive: 25.1 µM [inhibitor, partial curve]"}
{"smiles": "Cc1cc2nc(-c3ccc(SCC(=O)Nc4ccc(S(=O)(=O)N5CCCC5)cc4)nc3)[nH]c2cc1C", "activity change, negative = inhibition": "inactive: -15.1%"}
{"smiles": "CCCCC(CCC(=O)Nc1ccn(-c2ccccc2)n1)C(=O)O", "note": "(stereo unspecified)", "activity change, negative = inhibition": "inactive: 0%"}
{"smiles": "CCN(CC)CCn1c(NCc2ccc(C)o2)nc2ccccc21", "activity change, negative = inhibition": "inactive: -2.13%"}
{"smiles": "CC1CC(C#N)N(N(C)C)C1=C(C#N)C#N", "note": "(stereo unspecified)", "Potency": "inconclusive: 112 µM [inhibitor, single point]"}
{"smiles": "COc1cccc(CSC(C(=O)O)c2ccccc2)c1", "note": "(stereo unspecified)", "Potency": "inconclusive: 126 µM [inhibitor, single point]"}
{"smiles": "COc1ccc(OC(=O)Nc2ccccc2)cc1", "Potency": "inconclusive: 39.8 µM [inhibitor, partial curve, poor fit]"}
{"smiles": "CC(C)(C)C(=O)OCc1nc(-c2ccc(Cl)cc2)cs1", "Potency": "inconclusive: 79.4 µM [inhibitor, single point]"}
{"smiles": "CN(CC(=O)Nc1ccccc1Cl)C(=O)COC(=O)COc1ccc2oc3c(c2c1)CCCC3", "activity change, negative = inhibition": "inactive: 9.17%"}
{"smiles": "O=C1/C(=C\\c2ccco2)NC(=S)N1c1ccccc1", "Potency": "active: 15.8 µM"}
{"smiles": "CCc1cccc2c(N=O)c(O)[nH]c12", "activity change, negative = inhibition": "inactive: -11.1%"}
{"smiles": "CN1CCC(N2CCN(S(=O)(=O)c3cccs3)CC2)C1=O", "note": "(stereo unspecified)", "Potency": "inconclusive: 17.8 µM [inhibitor, partial curve]"}
{"smiles": "COC(=O)CCC(=O)N1CCOCCOCCN(C(=O)CCC(=O)OC)CCOCCOCC1", "Potency": "inconclusive: 126 µM [inhibitor, single point]"}
{"smiles": "COc1cccc(Nc2nnc(SCC(=O)N(CC(C)C)CC(C)C)s2)c1", "Potency": "inconclusive: 79.4 µM [inhibitor, partial curve, poor fit]"}
{"smiles": "O=C(NC(=S)Nc1cc(C(F)(F)F)ccc1N1CCOCC1)c1sc2ccccc2c1Cl", "activity change, negative = inhibition": "inactive: -2.34%"}
{"smiles": "Oc1ccc(/C=N/N=C/c2ccc(O)cc2)cc1", "activity change, negative = inhibition": "inactive: -31.8%"}
{"smiles": "O=C(NC1CCCc2ccccc21)c1cn2ccccc2n1", "note": "(stereo unspecified)", "Potency": "inconclusive: 39.8 µM [inhibitor, partial curve, poor fit]"}
{"smiles": "CC(=O)Nc1cc(NC(C)=O)cc(-c2nc3ccccc3o2)c1", "activity change, negative = inhibition": "inactive: 1.37%"}
{"smiles": "CCN1CCc2c(sc(NC(=O)c3ccc(S(=O)(=O)N(CC)c4ccccc4)cc3)c2C(N)=O)C1", "Potency": "inconclusive: 11.2 µM [inhibitor, partial curve, poor fit]"}
{"smiles": "O=C(O)CNC(=O)CC1S/C(=N/N=C/c2ccccc2O)NC1=O", "note": "(stereo unspecified)", "activity change, negative = inhibition": "inactive: 15.7%"}
{"smiles": "CC(C)c1nc2sc3c(NCc4ccccc4)ncnc3c2c2c1COC(C)(C)C2", "activity change, negative = inhibition": "inactive: 0%"}
{"smiles": "CCN(CC)c1ccc(S(=O)(=O)N2CCCCC2)cc1NC(=O)C1=COCCO1", "Potency": "inconclusive: 0.282 µM [inhibitor, full curve, poor fit]"}
{"smiles": "Oc1sc(C=Nc2ccccc2)c2ccccc12", "Potency": "inconclusive: 50.1 µM [inhibitor, partial curve, poor fit]"}
{"smiles": "Cc1ccc(C(NC(=O)Cc2ccccc2C)c2cccnc2)cc1C", "note": "(stereo unspecified)", "activity change, negative = inhibition": "inactive: -14.8%"}
{"smiles": "O=C(O)c1ccc(S(=O)(=O)N2CCCc3ccccc32)cc1", "activity change, negative = inhibition": "inactive: 5.6%"}
{"smiles": "CN(CCOc1ccc(C#N)cc1)C1CCCc2ccccc21", "note": "(stereo unspecified)", "Potency": "inconclusive: 79.4 µM [inhibitor, single point]"}
{"smiles": "CCOC(=O)C(=CNNc1ccsc1C(=O)OC)C(=O)OCC", "Potency": "inconclusive: 141 µM [inhibitor, single point]"}
{"smiles": "Cc1nnc(NC(=O)c2cc(=O)c3ccccc3o2)s1", "Potency": "inconclusive: 39.8 µM [inhibitor, partial curve, poor fit]"}
{"smiles": "Cc1cc(C)c(NC(=O)CSc2nc3c(c(=O)n2C)SC(C)C3)c(C)c1", "note": "(stereo unspecified)", "Potency": "inconclusive: 44.7 µM [inhibitor, partial curve, poor fit]"}
